Experimental data: PubChem BioAssay AID1224830 (NIAID, 2016)

Screen: 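Genes whose knock-down alters the TNF-alpha reporter response to LPS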 (primary screen)
Cells: human THP-1 monocytic leukaemia cells, TNF dual-luciferase reporter clone, PMA-differentiated to macrophage-like cells
Reagents: siRNA pool against human genes, 50 nM
Duration: LPS for 4 h, given about 3 days after siRNA transfection
Treatment: bacterial LPS (TLR4 ligand), 10 ng/ml
Measured: 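Ratio of firefly to renilla light, scaled to the plate median and expressed as a robust z-score per replicate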
Direction: TNF reporter robust z-score: higher = stronger TNF reporter response to LPS
Rule for the call: 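Each well counts as active if its z-score is over 2.8 or under -1.5; controls are left without a call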
Shown is an unselected part of about 18,000 reagents tested. About 2,900 of them (16%) were called active. 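Calls are made per well; low scores hint the gene aids the LPS response, high scores that it dampens it.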 Repeated entries: four replicate wells of each siRNA pool. Reagent sequences are not shown.

Gene | TNF reporter robust z-score | activity call
PRKG1 | -0.73 | inactive
PRKG1 | -0.65 | inactive
PRKG1 | 0.45 | inactive
PRKG1 | 0.21 | inactive
PLPP6 | 0.07 | inactive
PLPP6 | 0.72 | inactive
PLPP6 | 0.23 | inactive
PLPP6 | -0.27 | inactive
GSG1 | -0.98 | inactive
GSG1 | -0.76 | inactive
GSG1 | -1.34 | inactive
GSG1 | -1.51 | active
TRIM65 | -0.39 | inactive
TRIM65 | -1.07 | inactive
TRIM65 | -0.88 | inactive
TRIM65 | -1.13 | inactive
BCL10 | -0.57 | inactive
BCL10 | -0.06 | inactive
BCL10 | 0.63 | inactive
BCL10 | -0.55 | inactive
GMDS | 2.68 | inactive
GMDS | 4.84 | active
GMDS | 2.74 | inactive
GMDS | 4.59 | active
CD1E | -0.28 | inactive
CD1E | -0.48 | inactive
CD1E | -0.47 | inactive
CD1E | -0.31 | inactive
C1orf159 | 1.05 | inactive
C1orf159 | -0.12 | inactive
C1orf159 | -0.02 | inactive
C1orf159 | 0.37 | inactive
KCNH1 | -0.96 | inactive
KCNH1 | 0.85 | inactive
KCNH1 | -0.31 | inactive
KCNH1 | 0.02 | inactive
LRRIQ1 | 0 | inactive
LRRIQ1 | 0.24 | inactive
LRRIQ1 | -1.26 | inactive
LRRIQ1 | -1.4 | inactive
DNTTIP2 | -0.04 | inactive
DNTTIP2 | -0.84 | inactive
DNTTIP2 | 2 | inactive
DNTTIP2 | 2.23 | inactive
CERT1 | 1.02 | inactive
CERT1 | 2.9 | active
CERT1 | 0.67 | inactive
CERT1 | 0.48 | inactive
STK32C | 0.47 | inactive
STK32C | 2.08 | inactive
STK32C | 1.58 | inactive
STK32C | 1.57 | inactive
SURF6 | 0.06 | inactive
SURF6 | 0.03 | inactive
SURF6 | -0.1 | inactive
SURF6 | -0.2 | inactive
TRIM11 | -0.4 | inactive
TRIM11 | -0.52 | inactive
TRIM11 | -1.46 | inactive
TRIM11 | -0.36 | inactive
NCOA5 | -0.01 | inactive
NCOA5 | 0.76 | inactive
NCOA5 | -1.17 | inactive
NCOA5 | -0.1 | inactive
GHRHR | 2.09 | inactive
GHRHR | 0.99 | inactive
GHRHR | 1.74 | inactive
GHRHR | -0.4 | inactive
GPAT2 | -0.32 | inactive
GPAT2 | -0.89 | inactive
GPAT2 | -1.31 | inactive
GPAT2 | -0.83 | inactive
SIVA1 | 1.94 | inactive
SIVA1 | 3.13 | active
SIVA1 | 3.03 | active
SIVA1 | 1.65 | inactive

8 entries from above, sorted by “TNF reporter robust z-score”, low to high.
Gene | TNF reporter robust z-score | activity call
LRRIQ1 | -1.4 | inactive
LRRIQ1 | -1.26 | inactive
DNTTIP2 | -0.84 | inactive
KCNH1 | -0.31 | inactive
DNTTIP2 | -0.04 | inactive
LRRIQ1 | 0 | inactive
KCNH1 | 0.02 | inactive
LRRIQ1 | 0.24 | inactive
